PubChem BioAssay AID1224830, NIAID, 2016

Purpose: 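Genes whose knock-down alters the TNF-alpha reporter response to LPS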 (primary screen)
Cell system: human THP-1 monocytic leukaemia cells, TNF dual-luciferase reporter clone, PMA-differentiated to macrophage-like cells
Knock-down reagent: siRNA pool against human genes, 50 nM
Duration: LPS for 4 h, given about 3 days after siRNA transfection
Treatment: bacterial LPS (TLR4 ligand), 10 ng/ml
Detection: 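TNF firefly reporter luminescence divided by renilla, normalised to the plate median, then turned into a robust z-score for each replicate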
Scale: TNF reporter robust z-score: higher = stronger TNF reporter response to LPS
Rule for the call: 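Each well counts as active if its z-score is over 2.8 or under -1.5; controls are left without a call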
In all, the deposit lists about 18,000 reagents; below is a part drawn at random. About 2,900 of all reagents (16%) count as active. 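Calls are made per well; low scores hint the gene aids the LPS response, high scores that it dampens it.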 Repeated entries: four replicate wells of each siRNA pool. Reagent sequences are not shown.

For PPP1R12B (protein phosphatase 1 regulatory subunit 12B) [SID315450137], the values are TNF reporter robust z-score -0.45; inactive.
PPP1R12B (protein phosphatase 1 regulatory subunit 12B) [SID315450137] gave TNF reporter robust z-score 1; inactive.
Silencing of PPP1R12B (protein phosphatase 1 regulatory subunit 12B) [SID315450137] came out at: TNF reporter robust z-score 0.14; inactive.
PPP1R12B (protein phosphatase 1 regulatory subunit 12B) [SID315450137] gave TNF reporter robust z-score -1.38; inactive.
Against TSPAN1 (tetraspanin 1) [SID315453821], the entry reads TNF reporter robust z-score 3.48; active.
Against TSPAN1 (tetraspanin 1) [SID315453821], the entry reads TNF reporter robust z-score -0.53; inactive.
For TSPAN1 (tetraspanin 1) [SID315453821] the deposit lists TNF reporter robust z-score -0.24; inactive.
After knock-down of TSPAN1 (tetraspanin 1) [SID315453821], the record shows TNF reporter robust z-score 0.07; inactive.
For IFT27 (intraflagellar transport 27) [SID315454539], the values are TNF reporter robust z-score 0.24; inactive.
Silencing of IFT27 (intraflagellar transport 27) [SID315454539] gave: TNF reporter robust z-score 2.11; inactive.
Against IFT27 (intraflagellar transport 27) [SID315454539] the deposit lists TNF reporter robust z-score 0.66; inactive.
With knock-down of IFT27 (intraflagellar transport 27) [SID315454539], the record shows TNF reporter robust z-score -0.26; inactive.
Against HOXB3 (homeobox B3) [SID315449278], the values are TNF reporter robust z-score 3.48; active.
HOXB3 (homeobox B3) [SID315449278] showed TNF reporter robust z-score 0.87; inactive.
After knock-down of HOXB3 (homeobox B3) [SID315449278] the results were TNF reporter robust z-score 1.96; inactive.
For HOXB3 (homeobox B3) [SID315449278] the deposit lists TNF reporter robust z-score 1.89; inactive.
After knock-down of DHX35 (DEAH-box helicase 35) [SID315458729] the results were TNF reporter robust z-score -0.39; inactive.
Depletion of DHX35 (DEAH-box helicase 35) [SID315458729] gave: TNF reporter robust z-score 1.34; inactive.
After knock-down of DHX35 (DEAH-box helicase 35) [SID315458729], the screen gave TNF reporter robust z-score -0.71; inactive.
For DHX35 (DEAH-box helicase 35) [SID315458729], the values are TNF reporter robust z-score 2.15; inactive.

Reprinted from above, 2 entries:
HOXB3 (homeobox B3) [SID315449278] → TNF reporter robust z-score = 3.48; Call = active
HOXB3 (homeobox B3) [SID315449278] → TNF reporter robust z-score = 0.87; Call = inactive
